Test results taken from the supplement of paper PMC10689618.
Structures can show the parent of a compound that is named as a salt. The list shows a part of the results. Repeats are few or missing, and single values can be far off.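 Labelled rat cortical synaptosomes were engulfed by primary human fetal astrocytes. Engulfment equaled a red/green ratio, corrected for calcein live-cell signal and normalized to the plate median. Compounds were toxic when calcein dropped over 30%, and reduced phagocytosis when below 70% of the median above 5 µM.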

test system: Human fetal astrocytes; assay: synaptosome phagocytosis (pHrodo/calcein intensity ratio) relative to plate median of data wells; higher = more phagocytosis; conditions: 11.11 µM; 24 h

SMILES | synaptosome phagocytosis
CC(C)C[C@@H]1NC(=O)[C@H](CCCN)NC(=O)[C@H](C(C)C)NC(=O)[C@H](Cc2ccc(O)cc2)N[C@@H](CCC(=O)O)C(=O)N[C@@H](CC(N)=O)C(=O)[C@@H](Cc2ccccc2)NC(=O)[C@H](Cc2ccccc2)NC(=O)[C@@H]2CCCN2C(=O)[C@@H](Cc2ccccc2)NC1=O | 43.4%
C[N+](C)(C)CC(O)CC(=O)[O-] (stereo not given) | 132%
CC(=O)OCC(=O)[C@@]1(O)CC[C@H]2[C@@H]3CCC4=CC(=O)CC[C@]4(C)[C@H]3[C@@H](O)C[C@@]21C | 83.6%
CCCN(CCC)S(=O)(=O)c1ccc(C(=O)O)cc1 | 101%
CC(N)C12CC3CC(CC(C3)C1)C2 (stereo not given) | 77.6%
CON | 117%
Cn1c2ncnc-2c(O)n(C)c1=O | 106%
CC(COc1ccccc1)NC(C)C(O)c1ccc(O)cc1 (stereo not given) | 72.4%
CN(C)CCCO[C@@H]1[C@H]2OC(C)(C)O[C@H]2O[C@@H]1[C@H](O)CO | 113%
CS(=O)(=O)c1ccc([C@@H](O)[C@@H](CO)NC(=O)C(Cl)Cl)cc1 | 148%
C/C=N/N(C)C=O | 108%
C1CNCCN1 | 118%
NNC(=O)c1ccncc1.Nc1ccc(C(=O)O)c(O)c1 | 99.2%
CC(C)NCC(O)c1cc(O)cc(O)c1 (stereo not given) | 85.8%
O=C(/C=C/c1ccccc1)c1ccc(O[C@@H]2O[C@H](CO)[C@@H](O)[C@H](O)[C@H]2O)cc1O | 99%
CCN(CC)CCCC(C)Nc1c2ccc(Cl)cc2nc2ccc(OC)cc12 (stereo not given) [Quinacrine dihydrochloride] | 56.5%
CCN1CCCC1CNC(=O)c1cc(S(N)(=O)=O)ccc1OC (stereo not given) | 64.6%
O=C(OOC(=O)c1ccccc1)c1ccccc1 | 80.2%
Cn1c(=O)c2nc(C3CCCC3)[nH]c2n(C)c1=O | 87%
CCN1CCCC(OC(=O)C(c2ccccc2)c2ccccc2)C1 (stereo not given) | 90%

SMILES | synaptosome phagocytosis
COC(=O)C[C@H]1C(C)(C)[C@@H](O)[C@@H]2CC3=C4C=C(OC)O[C@@H](c5ccoc5)[C@]4(C)CCC3[C@@]1(C)C2=O (stereo partly drawn) [3-DEOXO-3beta-HYDROXYMEXICANOLIDE 16-ENOL ETHER] | 92%
CC1(C)CC[C@]2(C(=O)O)CC[C@]3(C)C(=CC[C@@H]4[C@@]5(C)CC[C@H](O)C(C)(C)[C@@H]5CC[C@]43C)[C@@H]2C1 | 99.9%
Cc1onc(-c2ccccc2Cl)c1C(=O)N[C@@H]1C(=O)N2[C@@H]1SC(C)(C)[C@@H]2C(=O)O | 130%
O=C(O[C@H]1CN2CCC1CC2)N1CCc2ccccc2[C@@H]1c1ccccc1 | 85.4%
CC[C@H]1C(=O)OC[C@@H]1Cc1cncn1C | 118%
CC1=C2C(=CO[C@H](C)[C@H]2C)C(=O)C(C(=O)O)=C1O | 81.2%
COc1cc(OC)c2c(=O)c(OC)c(-c3ccc(OC)c(OC)c3)oc2c1 | 113%
CCCCCCCCCc1ccc(OCCOCCOCCOCCOCCOCCOCCOCCOCCO)cc1 | 45.3%
CC(=O)OC(C)(C)[C@@H]1Cc2cc3ccc(=O)oc3cc2O1 | 78.9%
C[C@@H]1CC[C@H]2C(C)(C)[C@H]3C[C@@]12CC[C@@]3(C)O | 100%
CCN(CC)CCOCCOC(=O)C(CC)(CC)c1ccccc1 | 98.2%
CN(C)c1ccc2nc3ccc(=[N+](C)C)cc-3sc2c1 | 30.8%
O=C1C(=O)c2ccccc2C(O)=C1C1CCC(c2ccc(Cl)cc2)CC1 (stereo not given) | 87.2%
NC(Cc1ccc(F)cc1)C(=O)O (stereo not given) | 121%
O=c1oc2c(O)c(O)cc3c(=O)oc4c(O)c(O)cc1c4c23 | 113%
CCOC(=O)CCC(=O)O[C@H]1[C@H](O[C@@H]2[C@@H](C)[C@H](O[C@H]3C[C@@](C)(OC)[C@@H](O)[C@H](C)O3)[C@@H](C)C(=O)O[C@H](CC)[C@@](C)(O)[C@H](O)[C@@H](C)C(=O)[C@H](C)C[C@@]2(C)O)O[C@H](C)C[C@@H]1N(C)C | 106%
C=CC(N)CCC(=O)O (racemic) [(±)-gamma-Vinyl GABA] | 111%
Nc1nc(=O)c2[nH]c(=O)cnc2[nH]1 | 101%
O=C(O)CCNC(=O)c1ccccc1 | 139%
C=C1c2c(Cl)ccc(O)c2C(O)=C2C(=O)[C@]3(O)C(O)=C(C(N)=O)C(=O)[C@@H](N(C)C)[C@@H]3[C@@H](O)[C@H]12.O=C(O)c1cc(S(=O)(=O)O)ccc1O | 89%

same assay, conditions: 22.22 µM; 24 h

SMILES | synaptosome phagocytosis
CC(C)C[C@@H]1NC(=O)[C@H](CCCN)NC(=O)[C@H](C(C)C)NC(=O)[C@H](Cc2ccc(O)cc2)N[C@@H](CCC(=O)O)C(=O)N[C@@H](CC(N)=O)C(=O)[C@@H](Cc2ccccc2)NC(=O)[C@H](Cc2ccccc2)NC(=O)[C@@H]2CCCN2C(=O)[C@@H](Cc2ccccc2)NC1=O | 0%
C[N+](C)(C)CC(O)CC(=O)[O-] (stereo not given) | 115%
CC(=O)OCC(=O)[C@@]1(O)CC[C@H]2[C@@H]3CCC4=CC(=O)CC[C@]4(C)[C@H]3[C@@H](O)C[C@@]21C | 95.2%
CCCN(CCC)S(=O)(=O)c1ccc(C(=O)O)cc1 | 100%
CC(N)C12CC3CC(CC(C3)C1)C2 (stereo not given) | 81.3%
CON | 71.9%
Cn1c2ncnc-2c(O)n(C)c1=O | 106%
CC(COc1ccccc1)NC(C)C(O)c1ccc(O)cc1 (stereo not given) | 73.7%
CN(C)CCCO[C@@H]1[C@H]2OC(C)(C)O[C@H]2O[C@@H]1[C@H](O)CO | 100%
CS(=O)(=O)c1ccc([C@@H](O)[C@@H](CO)NC(=O)C(Cl)Cl)cc1 | 117%
C/C=N/N(C)C=O | 110%
C1CNCCN1 | 94.8%
NNC(=O)c1ccncc1.Nc1ccc(C(=O)O)c(O)c1 | 84%
CC(C)NCC(O)c1cc(O)cc(O)c1 (stereo not given) | 89.5%
O=C(/C=C/c1ccccc1)c1ccc(O[C@@H]2O[C@H](CO)[C@@H](O)[C@H](O)[C@H]2O)cc1O | 98.1%
CCN(CC)CCCC(C)Nc1c2ccc(Cl)cc2nc2ccc(OC)cc12 (stereo not given) [Quinacrine dihydrochloride] | 20.4%
CCN1CCCC1CNC(=O)c1cc(S(N)(=O)=O)ccc1OC (stereo not given) | 95.9%
O=C(OOC(=O)c1ccccc1)c1ccccc1 | 87.7%
Cn1c(=O)c2nc(C3CCCC3)[nH]c2n(C)c1=O | 128%
CCN1CCCC(OC(=O)C(c2ccccc2)c2ccccc2)C1 (stereo not given) | 107%

SMILES | synaptosome phagocytosis
COC(=O)C[C@H]1C(C)(C)[C@@H](O)[C@@H]2CC3=C4C=C(OC)O[C@@H](c5ccoc5)[C@]4(C)CCC3[C@@]1(C)C2=O (stereo partly drawn) [3-DEOXO-3beta-HYDROXYMEXICANOLIDE 16-ENOL ETHER] | 117%
CC1(C)CC[C@]2(C(=O)O)CC[C@]3(C)C(=CC[C@@H]4[C@@]5(C)CC[C@H](O)C(C)(C)[C@@H]5CC[C@]43C)[C@@H]2C1 | 140%
Cc1onc(-c2ccccc2Cl)c1C(=O)N[C@@H]1C(=O)N2[C@@H]1SC(C)(C)[C@@H]2C(=O)O | 110%
O=C(O[C@H]1CN2CCC1CC2)N1CCc2ccccc2[C@@H]1c1ccccc1 | 107%
CC[C@H]1C(=O)OC[C@@H]1Cc1cncn1C | 115%
CC1=C2C(=CO[C@H](C)[C@H]2C)C(=O)C(C(=O)O)=C1O | 88.6%
COc1cc(OC)c2c(=O)c(OC)c(-c3ccc(OC)c(OC)c3)oc2c1 | 142%
CCCCCCCCCc1ccc(OCCOCCOCCOCCOCCOCCOCCOCCOCCO)cc1 | 32.3%
CC(=O)OC(C)(C)[C@@H]1Cc2cc3ccc(=O)oc3cc2O1 | 112%
C[C@@H]1CC[C@H]2C(C)(C)[C@H]3C[C@@]12CC[C@@]3(C)O | 144%
CCN(CC)CCOCCOC(=O)C(CC)(CC)c1ccccc1 | 90.7%
CN(C)c1ccc2nc3ccc(=[N+](C)C)cc-3sc2c1 | 39.4%
O=C1C(=O)c2ccccc2C(O)=C1C1CCC(c2ccc(Cl)cc2)CC1 (stereo not given) | 103%
NC(Cc1ccc(F)cc1)C(=O)O (stereo not given) | 104%
O=c1oc2c(O)c(O)cc3c(=O)oc4c(O)c(O)cc1c4c23 | 152%
CCOC(=O)CCC(=O)O[C@H]1[C@H](O[C@@H]2[C@@H](C)[C@H](O[C@H]3C[C@@](C)(OC)[C@@H](O)[C@H](C)O3)[C@@H](C)C(=O)O[C@H](CC)[C@@](C)(O)[C@H](O)[C@@H](C)C(=O)[C@H](C)C[C@@]2(C)O)O[C@H](C)C[C@@H]1N(C)C | 92.7%
C=CC(N)CCC(=O)O (racemic) [(±)-gamma-Vinyl GABA] | 106%
Nc1nc(=O)c2[nH]c(=O)cnc2[nH]1 | 97.3%
O=C(O)CCNC(=O)c1ccccc1 | 90.6%
C=C1c2c(Cl)ccc(O)c2C(O)=C2C(=O)[C@]3(O)C(O)=C(C(N)=O)C(=O)[C@@H](N(C)C)[C@@H]3[C@@H](O)[C@H]12.O=C(O)c1cc(S(=O)(=O)O)ccc1O | 108%
